Source: PubChem BioAssay AID1224830 (NIAID, 2016)
Test: 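Genes whose knock-down alters the TNF-alpha reporter response to LPS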 (primary screen). Cell system: human THP-1 monocytic leukaemia cells, TNF dual-luciferase reporter clone, PMA-differentiated to macrophage-like cells. Knock-down reagent: siRNA pool against human genes, 50 nM. Timing: LPS for 4 h, given about 3 days after siRNA transfection. Conditions: bacterial LPS (TLR4 ligand), 10 ng/ml. Measured: 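Ratio of firefly to renilla light, scaled to the plate median and expressed as a robust z-score per replicate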. Direction: TNF reporter robust z-score: higher = stronger TNF reporter response to LPS. Hit rule: 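Each well counts as active if its z-score is over 2.8 or under -1.5; controls are left without a call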.
This is a random part of about 18,000 reagents. In the full data, about 2,900 (16%) got an active call. 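Calls are made per well; low scores hint the gene aids the LPS response, high scores that it dampens it.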 Entries without a mark were called inactive. The numbers tell different reagents against one gene apart. Repeated entries: four replicate wells of each siRNA pool.

no.	gene	reagent no.	TNF reporter robust z-score
1	SEC63	1	-0.29
2	SEC63	1	-1.34
3	SEC63	1	-1.5
4	SEC63	1	-0.85
5	CACNB2	1	1.3
6	CACNB2	1	0.8
7	CACNB2	1	1.22
8	CACNB2	1	1.41
9	LGI3	1	0.63
10	LGI3	1	1.67
11	LGI3	1	1.38
12	LGI3	1	1.66
13	RPL4	1	-0.93
14	RPL4	1	-1.28
15	RPL4	1	-0.99
16	RPL4	1	-1.52 (active)
17	PCGF5	1	-1
18	PCGF5	1	-0.46
19	PCGF5	1	-0.53
20	PCGF5	1	0.32
21	IL7R	1	-0.31
22	IL7R	1	0.74
23	IL7R	1	0.19
24	IL7R	1	-0.42
25	MRPL15	1	-0.98
26	MRPL15	1	-0.51
27	MRPL15	1	-0.49
28	MRPL15	1	-0.03
29	ING5	1	-0.62
30	ING5	1	-0.2
31	ING5	1	-0.39
32	ING5	1	-0.13
33	RNF175	1	0.42
34	RNF175	1	1.61
35	RNF175	1	0.27
36	RNF175	1	0.29
37	OR52I2	1	0.71
38	OR52I2	1	1.25
39	OR52I2	1	2
40	OR52I2	1	-0.04
41	AKAP8L	1	0.68
42	AKAP8L	1	2.38
43	AKAP8L	1	0.53
44	AKAP8L	1	2.93 (active)
45	CFAP74	1	-0.26
46	CFAP74	1	1.42
47	CFAP74	1	1.11
48	CFAP74	1	0.85
49	CFAP74	2	0.19
50	CFAP74	2	0.92
51	CFAP74	2	0.64
52	CFAP74	2	0.62

More results follow.
no.	gene	reagent no.	TNF reporter robust z-score
53	MAML3	1	1.44
54	MAML3	1	1.59
55	MAML3	1	1.85
56	MAML3	1	1.55
57	SLC25A3	1	-1.08
58	SLC25A3	1	-0.28
59	SLC25A3	1	-0.13
60	SLC25A3	1	-0.9
61	MGAT3	1	-0.71
62	MGAT3	1	-0.7
63	MGAT3	1	-1.2
64	MGAT3	1	0.14
65	TIMM22	1	0.68
66	TIMM22	1	1.77
67	TIMM22	1	1.28
68	TIMM22	1	0.88
69	TRIB2	1	0.56
70	TRIB2	1	0.04
71	TRIB2	1	0.72
72	TRIB2	1	-0.24
73	NARF	1	0.89
74	NARF	1	0.02
75	NARF	1	0.33
76	NARF	1	0.38
77	HNRNPF	1	1.22
78	HNRNPF	1	0.58
79	HNRNPF	1	-0.76
80	HNRNPF	1	2.06
81	GRM2	1	0.02
82	GRM2	1	0.4
83	GRM2	1	0.27
84	GRM2	1	2.25
85	CTHRC1	1	0.05
86	CTHRC1	1	-0.27
87	CTHRC1	1	0.3
88	RAB42	1	-1.08
89	RAB42	1	1.69
90	RAB42	1	1.3
91	RAB42	1	0.89
92	MYO9B	1	-1.69 (active)
93	MYO9B	1	-0.14
94	MYO9B	1	-0.07
95	MYO9B	1	0.05
96	EIF3M	1	0.59
97	EIF3M	1	0.24
98	EIF3M	1	-0.5
99	EIF3M	1	-0.28
100	CST9L	1	-0.16
101	CST9L	1	0.13
102	CST9L	1	-0.6
103	CST9L	1	1.11
104	TMED3	1	-1.45
105	TMED3	1	-1.38
106	TMED3	1	-1.51 (active)
107	DDIT4L	1	-0.38
108	DDIT4L	1	0.01
109	DDIT4L	1	-0.81
110	DDIT4L	1	-0.64
111	GTF2A1	1	-0.56
112	GTF2A1	1	-0.27
113	GTF2A1	1	-0.3
114	GTF2A1	1	-0.64
115	MBD6	1	-0.39
116	MBD6	1	13.9 (active)
117	MBD6	1	-0.44
118	MBD6	1	-0.82
119	HCFC1R1	1	-0.68
120	HCFC1R1	1	0.37
121	HCFC1R1	1	0.86
122	HCFC1R1	1	0.17
123	PKIG	1	-1.68 (active)
124	PKIG	1	-1.47
125	PKIG	1	-1.61 (active)
126	PKIG	1	-1.35
127	SLC5A1	1	0.6
128	SLC5A1	1	-0.55
129	SLC5A1	1	0.21
130	SLC5A1	1	-0.24
131	DNAJA3	1	-0.61
132	DNAJA3	1	0.39
133	DNAJA3	1	0.29
134	DNAJA3	1	-0.27
135	ANKIB1	1	-1.33
136	ANKIB1	1	-0.58
137	ANKIB1	1	-0.32
138	ANKIB1	1	0.37
139	SLC12A9	1	-0.07
140	SLC12A9	1	0.85
141	SLC12A9	1	0.33
142	SLC12A9	1	0.27
